This note sets out measurements from PMC9698323, “Interaction of Destruxin A with Three Silkworm Proteins: BmCRT, BmDPP3, and BmPDIA5” (Molecules, 2022).

No constants are given. Whether binding was seen depends on the method and setting. Binding can be weak; no strength is given.

The target in the test is protein disulfide isomerase A5 (BmPDIA5) (silkworm (Bombyx mori)). In words: two-hybrid; insect two-hybrid (I2H) in Sf9 cells transfected with pIE2-AD and pIE2-DBD expression vectors; luciferase luminescence against cells not transfected; cells also treated with Destruxin A (0.002-20 mg/L), which lowered the signal at 0.2 mg/L and above.

B1: calreticulin (BmCRT) (protein, UniProt Q7Z1E6 1-398)
chain: MKAVVLVVVSLLALSSINCDVFFEEKFPDDSWESNWVYSEHPGKEFGKFKLTAGKFFSDPEDDKGLKTSEDARFYALSRKFKPFSNEGKPLVVQFTVKHEQDIDCGGGYLKVFDCKLEQKDMHGETPYEIMFGPDICGPGTKKVHVIFSYKGKNHLIKKDIRCKDDVYTHLYTLIVKPDNTYEVLIDNEKVESGDLEADWDFLPNKKIKDPEAKKPEDWDDKPTIPDPEDKKPEDWDKPEHIPDPDATKPEDWDDEMDGEWEPPMIDNPDYKGVWAPKQIDNPAYKGPWVHPEIDNPEYTPDSNLYKRDEICAVGLDLWQVKSGTIFDDFLITDDPAAAKERGEVIKKRQEGEKKMKSEQDEAEREKEKAEKPDDEEDDEDLDDETGDAAPVEEHDEL
As to B1, the binding result is reported as “binds”.
